According to PubChem BioAssay AID485349 (National Center for Advancing Translational Sciences (NCATS), 2010):
In all, about 320,000 compounds went through this assay and about 620 (0.19%) were called active. The shares of active, inactive and inconclusive entries below differ from those in the screen. The call rests on the fitted dose curve; in most records, active means well fitted activation curve with a large enough effect; inconclusive means small, poorly fitted or top-dose-only effect; inactive means no such curve, though single readings can be large or run the other way. Potencies of inconclusive entries are doubtful fits and often do not repeat.

test: qHTS Assay for Identifying a Potential Treatment of Ataxia-Telangiectasia; conditions: […] A-T fibroblasts, KAP-1 phosphorylation AlphaLISA, neocarzinostatin DNA damage 30 min before lysis; series mostly up to 57.5 µM; activation: at the top concentration; further: nearly all actives have a fitted effect of over 45% in size; on activation: % of control where 0% means no effect
Outline: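 hTERT-immortalized A-T patient fibroblasts ([…]), 500 cells/well in OPTI-MEM, 1% FBS, got compounds for 60 min, then NCS for 30 min at 37C. Lysates were then assayed for phospho-KAP-1 by AlphaLISA (anti-pKAP1 donor, anti-KAP1 acceptor beads), 6 hr at 25C.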
Potency means the concentration at half of the fitted maximal effect.

SMILES	Potency	activation
CCN(CC)Cc1c(O)c(Cl)cc2c3c(c(=O)oc12)CCCC3	inconclusive: 39.8 µM [activator, single point]	
COc1ccc2nc3ccccc3nc2c1N	inconclusive: 35.5 µM [activator, partial curve, poor fit]	
CCCCCCc1ccc(-c2ncc(N)cn2)cc1		inactive: -7.67%
CCCCNc1c(-c2ccc(Sc3ccc(OC)cc3)cc2)nc2cc(C)ccn12	inconclusive: 35.5 µM [activator, single point]	
Cc1nc(C2CCC3C4CCC5=CC(=O)CC[C@]5(C)C4CC[C@]23C)cs1 (some centres undefined)	inconclusive: 39.8 µM [activator, partial curve, poor fit]	
CCOC(=O)C(=NC(C)CC)NNc1cccc(C(F)(F)F)c1 (centres undefined)	inconclusive: 28.2 µM [activator, single point]	
CN(C(=O)Nc1ccccc1)C1CCCCC1	inconclusive: 39.8 µM [activator, single point]	
COCCN(C(=S)Nc1cccc(Cl)c1C)C(C)c1ccco1 (centres undefined)	inconclusive: 39.8 µM [activator, single point]	
CCC(Oc1ccccc1)C(=O)N(C)CC(=O)N(CC(C)C)c1c(N)n(CC(C)C)c(=O)[nH]c1=O (centres undefined)	inconclusive: 7.08 µM [activator, partial curve]	
O=C(NCCN1CCc2ccccc2C1)C1CC(=O)N(C2CCCC2)C1 (centres undefined)	inconclusive: 10 µM [activator, partial curve]	
CC(C)(C)NC(=O)c1nn2c(C(F)(F)F)cc(-c3ccccc3)nc2c1Br		inactive: -15%
CCCCCCCC(=O)N/N=C/c1ccc(Br)cc1	inconclusive: 31.6 µM [activator, single point]	
COc1ccc(CCNCC(O)COc2cccc(C(C)=O)c2)cc1OC (centres undefined)	inconclusive: 39.8 µM [activator, partial curve, poor fit]	
C[C@@H](NC(=O)OC(C)(C)C)c1nnc(S(=O)(=O)Cc2ccccc2)o1	inconclusive: 39.8 µM [activator, single point]	
CC(NC(=O)CSc1cccc(C(F)(F)F)c1)c1ccccc1 (centres undefined)	inconclusive: 22.4 µM [activator, partial curve]	
Cc1ccccc1/C(N)=N/OC(=O)N1c2ccccc2Sc2ccccc21		inactive: 2.66%
CCc1nnc(N/N=C/c2ccccc2Cl)n1N	inconclusive: 39.8 µM [activator, single point]	
COCCCNC(=O)c1c(N)n(-c2ccccc2)c2nc3ccccc3nc12	inconclusive: 39.8 µM [activator, single point]	
N#Cc1c(-c2ccc(Cl)cc2)c2c([nH]c1=O)-c1ccccc1OC2	inconclusive: 35.5 µM [activator, single point]	
Nc1c(Cl)cc(Cl)cc1C(=O)OCC(=O)N1CCOCC1		inactive: 33.6%
COc1ccccc1Nc1nc(NCCCN(C)C)nc(N)c1[N+](=O)[O-]	inconclusive: 3.98 µM [activator, single point]	
C/C=C\C=C/C(=O)Nc1cccc(C2=NOC3(C2)C[C@@H](C(N)=O)N(C(=O)c2ccc(Cl)cc2)C3)c1 (some centres undefined)	inconclusive: 39.8 µM [activator, partial curve, poor fit]	

SMILES	Potency	activation
Cc1ccc(C(=O)NCCCc2ccccc2)c(C)c1		inactive: -0.201%
CN1CCN(C(=O)CCN2C(=O)/C(=C\c3ccc(Cl)cc3Cl)SC2=S)CC1	inconclusive: 35.5 µM [activator, partial curve]	
CCOC(=O)CSc1ccc(-c2nc3ccccc3[nH]2)cn1		inactive: 0.443%
Cn1c(=O)c2c(ncn2CC(=O)N/N=C/c2c[nH]c3ccccc23)n(C)c1=O	inconclusive: 39.8 µM [activator, single point]	
O=C(CCCN1C(=O)/C(=C/c2ccccc2Cl)SC1=S)NNC(=O)c1cccnc1	inconclusive: 39.8 µM [activator, single point]	
CN(CCNC(=O)c1cc2c(=O)n(C)c3ccccc3c2n1C)Cc1ccccc1	inconclusive: 3.16 µM [activator, full curve, poor fit]	
COc1ccc2c(c1)c(N=NC(N)=S)c(O)n2CC(=O)c1ccccc1	active: 0.708 µM	
Cc1cccc(C)c1NC(=O)CSC(=S)N1CCCC1	inconclusive: 0.708 µM [activator, full curve, poor fit]	
CC(C)C(=O)NC(=S)Nc1ccc(S(=O)(=O)NC2CCCCC2)cc1		inactive: 9.16%
Cc1cc(-c2nc3cccnc3s2)ccc1NS(=O)(=O)c1cccs1	inconclusive: 39.8 µM [activator, partial curve, poor fit]	
COCC(C)NC(=O)CCS(=O)(=O)c1nc(-c2ccc(OC)cc2)cc(C(F)(F)F)n1 (centres undefined)		inactive: 4.09%
Cc1ccc(/C=C/C(=O)O)cc1S(=O)(=O)NCCCC(=O)O	inconclusive: 6.31 µM [activator, single point]	
COc1ccc(CCn2c(S)nc3ccccc3c2=O)cc1	active: 1.78 µM	
CC(=O)N1CCSc2ccc(S(=O)(=O)Nc3cccc(C)c3)cc21		inactive: 3.72%
Cc1nc(SCC(=O)Nc2cc(C(N)=O)cc(C(N)=O)c2)c2c(C)c(C)sc2n1	active: 35.5 µM	
COC(=O)C(C)Sc1nc2c(cnn2-c2ccccc2)c(=O)[nH]1 (centres undefined)	inconclusive: 3.16 µM [activator, full curve, poor fit]	
CCOc1cc(S(=O)(=O)N2CCCCC2)ccc1F		inactive: 6.9%
Cc1ccc(O)c(C2=Nc3ccccc3C2(C)C)c1	inconclusive: 35.5 µM [activator, single point]	
Cc1ccn2c(NCc3ccccc3)c(-c3cccc(SC4CCCCC4)c3)nc2c1	inconclusive: 22.4 µM [activator, partial curve]	
COc1cccc(-c2sc3ccc(OC)cc3c2C#CCCO)c1	inconclusive: 28.2 µM [activator, partial curve]	
Cc1cc(C)c(OCCCCN(C)Cc2ccccc2)c(C)c1	inconclusive: 39.8 µM [activator, single point]	
O=C(CSc1ccc(-c2cccnc2)nn1)Nc1ccc(F)c(F)c1		inactive: 0.375%

Looked up by structure from above:
SMILES	Potency	activation
Cc1cccc(C)c1NC(=O)CSC(=S)N1CCCC1	inconclusive: 0.708 µM [activator, full curve, poor fit]	
COCC(C)NC(=O)CCS(=O)(=O)c1nc(-c2ccc(OC)cc2)cc(C(F)(F)F)n1 (centres undefined)		inactive: 4.09%
Cc1cc(C)c(OCCCCN(C)Cc2ccccc2)c(C)c1	inconclusive: 39.8 µM [activator, single point]	
COc1ccc2c(c1)c(N=NC(N)=S)c(O)n2CC(=O)c1ccccc1	active: 0.708 µM	
